Source: PubChem BioAssay AID1487 (National Center for Advancing Translational Sciences (NCATS), 2009)
The list shows a part of the results. Further columns of the screen follow, without active or inactive calls. The list favours compounds with an active or inconclusive main result. Potencies come from curve fits of mixed quality, noted in brackets.

Assay: qHTS Assay for Modulators of Lamin A Splicing
Settings: HeLa LMNA splicing GFP/RFP minigene ratio, 48 h
Summary of the method: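 Read-out is the ratio of GFP to DsRed2 object intensity, acquired by 488 nm laser-scanning cytometry on HeLa lamin A-EGFP minigene reporter cells. Compound incubation 48 hrs at 37 °C in Opti-MEM with 2% FBS; DMSO 0.5% final.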

[1] = measured here: GFP splicing reporter channel
[2] = measured here: RFP viability control channel

| SMILES | AC50 [1] | AC50 [2] |
| --- | --- | --- |
| Cc1ccc(S(=O)(=O)N2CCOCC2)cc1NC(=O)CSc1nc2ccccc2c(=O)n1Cc1ccccc1 | 3.16 µM [rising, full curve, poor fit] |  |
| COc1ccc(-n2cnnc2SCc2ncc(-c3ccccc3)o2)cc1 | 17.8 µM [rising, partial curve, poor fit] |  |
| CC(C)CNS(=O)(=O)c1ccc(CCC(=O)N2CCN(Cc3ccc4c(c3)OCO4)CC2)cc1 | 0.631 µM [rising, partial curve] | 20 µM [rising, partial curve] |
| Cc1cc(C)n(-c2cc(N3CCN(C(=O)c4cccc(F)c4)CC3)ccc2[N+](=O)[O-])n1 | 17.8 µM [rising, partial curve, poor fit] | 35.5 µM [rising, single point] |
| COc1ccc(Br)cc1C(=O)Nc1ccccc1-c1ccccc1 |  | 15.8 µM [rising, single point] |
| O=C(CSc1ccsc1[N+](=O)[O-])N1CCCCCC1 | 0.00447 µM [rising, full curve, poor fit] |  |
| COc1cc(C2C(C#N)=C(N)N(Nc3ccccc3)C3=C2C(=O)CC(C)(C)C3)ccc1OCc1ccccc1 (centres undefined) | 12.6 µM [falling, single point] |  |
| Cc1ccc(C(=O)c2cc([N+](=O)[O-])ccc2N2CC(C)OC(C)C2)cc1 (centres undefined) |  | 6.31 µM [rising, partial curve] |
| C/C=C\C(=O)N(CC)c1ccccc1C | 0.00794 µM [falling, full curve, poor fit] | 3.16 µM [falling, single point] |
| O=C(CSCc1ccc(Br)cc1)Nc1ccc(S(=O)(=O)N2CCOCC2)cc1 | 14.1 µM [rising, single point] |  |
| COc1cc(S(=O)(=O)NCCOC23CC4CC(CC(C4)C2)C3)c(OC)cc1Cl | 11.2 µM [rising, partial curve] | 7.08 µM [rising, partial curve] |
| COc1cccc(C(=O)NCc2ccc3c(c2)CCN3C(=O)c2ccncc2)c1 | 5.62 µM [rising, single point] |  |
| Cc1cc(NC(=O)CSc2cc(Cl)ccc2Cl)n(-c2ccccc2)n1 |  | 22.4 µM [rising, single point] |
| Cn1c(=O)[nH]c2cc3ccccc3cc21 | 20 µM [falling, partial curve, poor fit] | 15.8 µM [falling, partial curve] |
| COc1ccc(C(=O)NC(=S)NNC(=O)COc2ccccc2)cc1 |  | 15.8 µM [rising, single point] |
| Cc1nc2cc(-c3ccc(Cl)cc3)nn2c(C)c1CCC(=O)NC(C)c1ccc2c(c1)OCCO2 (centres undefined) | 15.8 µM [falling, single point] |  |
| Cc1ccc(C(=O)NC(C#N)=C(Cl)Cl)cc1 | 7.94 µM [falling, partial curve] | 12.6 µM [falling, partial curve] |
| O=S(=O)(NCC1CCCO1)c1cnc(Cl)c(Cl)c1 (centres undefined) | 5.01 µM [rising, single point] |  |

Reprinted at random: two entries already listed, in no set order.

| SMILES | AC50 [1] | AC50 [2] |
| --- | --- | --- |
| COc1cc(S(=O)(=O)NCCOC23CC4CC(CC(C4)C2)C3)c(OC)cc1Cl | 11.2 µM [rising, partial curve] | 7.08 µM [rising, partial curve] |
| O=S(=O)(NCC1CCCO1)c1cnc(Cl)c(Cl)c1 (centres undefined) | 5.01 µM [rising, single point] |  |

The list goes on.

| SMILES | AC50 [1] | AC50 [2] |
| --- | --- | --- |
| CN1CCN(C(=O)c2ccc(CN(c3ccccc3)S(=O)(=O)c3ccccc3)cc2)CC1 |  | 7.08 µM [falling, full curve, poor fit] |
| Clc1ccc(-c2nc3cnccn3c2Nc2ccc3c(c2)OCO3)cc1 | 12.6 µM [rising, single point] | 12.6 µM [rising, partial curve] |
| COc1ccc(-n2c(=O)c(CCC(=O)N(C)Cc3ccccc3C)nc3ccccc32)cc1 | 35.5 µM [falling, partial curve, poor fit] | 4.47 µM [falling, partial curve, poor fit] |
| CC(C)CC(=O)N1CCN(C(=O)CCC2CCCC2)CC1 | 20 µM [rising, single point] |  |
| O=C(NCCC1=CCCCC1)C1CCN(C(=O)Cc2ccccc2)CC1 |  | 17.8 µM [falling, partial curve] |
| Cc1ccc(-c2c(C#N)c(N)n3c(nc4ccccc43)c2C#N)cc1 |  | 12.6 µM [rising, partial curve] |
| CN1CCN(C2(CNC(=O)c3ccc(C(C)(C)C)cc3)CCCCC2)CC1 | 35.5 µM [falling, single point] |  |
| FC(F)(F)c1ccc(NC(=S)NC2CCCCC2)cc1 |  | 35.5 µM [rising, single point] |
| Cn1c(=O)c2c(nc(Br)n2CCc2ccccc2)n(C)c1=O |  | 11.2 µM [rising, single point] |
| CCSc1nc(-c2ccccc2)c(-c2ccccc2)n1CC(O)CO (centres undefined) | 0.501 µM [falling, partial curve] |  |
| O=C(NCc1ccccc1)c1ccc(-c2ccc(F)cc2)o1 | 31.6 µM [rising, single point] | 35.5 µM [rising, single point] |
| O=C(Nc1ccn(Cc2ccc(Cl)cc2)n1)c1ccccc1 |  | 14.1 µM [rising, partial curve, poor fit] |
| COc1ccc(N2C(=O)CC(Sc3nc4c(cc3C#N)CCC4)C2=O)cc1 (centres undefined) | 14.1 µM [falling, single point] | 17.8 µM [falling, partial curve, poor fit] |
| CC(NC(=O)CN(C1CCCCC1)S(C)(=O)=O)c1ccccc1 (centres undefined) | 35.5 µM [falling, single point] |  |
| O=C(CCl)Nc1cccc(S(=O)(=O)N2CCCCCC2)c1 | 35.5 µM [falling, single point] | 14.1 µM [falling, single point] |
| CCC1(CC)NC(=O)N(CC(=O)N2N=C(c3ccc(Cl)cc3)CC2c2ccco2)C1=O (centres undefined) | 10 µM [falling, single point] |  |
| C/C(=N\NC(=O)CSc1nc(C)cc(C)n1)c1ccc2c(c1)OCCO2 | 0.562 µM [rising, full curve, poor fit] | 1 µM [rising, single point] |
| COc1cc(N[C@@H](C)CCCN)c2ncccc2c1 | 0.02 µM [falling, full curve] | 0.00891 µM [falling, full curve] |
